# Source: patent publication US20090098652A1, “SELF ASSEMBLING PEPTIDE SYSTEMS AND METHODS” (Northwestern University, priority 2007, published 2009)
# Part of at least one peptide drawing is inferred or uncertain, most often the ends. Where a SMILES comes first, the peptide text is derived from it. The star is where a group is joined. Palmitoyl = CCCCCCCCCCCCCCCC(=O)*
# Assays:
# Gelation = assay type: physicochemical; conditions: with the addition of plasmid
# [1] = Dynamic light scattering of DNA complexes; assay type: physicochemical; conditions: compared to LIPOFECAMINE nanostructures
# [2] = tested on: P19 cells in suspension aggregates; assay: Transfection of P19 suspension aggregates with GFP plasmid, read by qPCR and Western blot; assay type: cell-based
# From the text: In the figure, “peptide amphiphile” is the DNA-binding PA with sequence […](N^ε-palmitoyl) and “peptide” is a peptide with sequence […].
# In some embodiments, the invention described here improves on this system by incorporating one or more peptides which are bioactive and direct the complex to the nucleus. It is designed, in some embodiments, to form an alpha helix which binds to the major groove of the double helix of DNA. In addition, it is a self-assembling peptide amphiphile (PA) which forms high aspect ratio nanostructures. When complexed with DNA, these nanostructures are, on average, smaller than the nanostructures produced by LIPOFECAMINE as determined by dynamic light scattering. The present invention is not limited to a particular mechanism. Indeed, an understanding of the mechanism is not necessary to practice the present invention. Nonetheless, it is contemplated that the system works by complexing and condensing the DNA through specific binding to the major groove and electrostatic screening. This DNA-PA complex is similar to the LIPOFECTAMINE complex, however it includes a peptide region containing a nuclear localization signal which directs the cell to move this complex through the cytoplasm and into the nucleus where the genes encoded in the DNA are subsequently expressed. When the peptide amphiphile system is placed in culture with a cellular aggregate, it self-assembles into a network of nanofibers which creates an internal scaffold. This scaffold penetrates to the core of the cellular aggregates, thus providing an increased effect. The improvements of this system over the LIPOFECTAMINE system are particularly useful in cellular aggregates in which a large increase in transfection is seen both in the number of mRNA transcripts contained within the cells (qPCR) and in the actual protein production of GFP (Western blot). Up to 10-fold increase in the mRNA transcript and threefold increase in the protein expression has been seen compared to LIPOFECTAMINE (see FIG. 2).
# Physical and chemical characterization. […] High resolution mass spectrometry confirmed identity. […] Intact histidine hexamer PA is present inside cell aggregate. […] DNA binds to the DNA-binding PA. […] The plasmid used here coded for GFP.
# DNA = DNA footprinting (protection from DNase); assay type: binding; conditions: gel electrophoresis
# [3] = cellular aggregates, compared to LIPOFECTAMINE
compound,measurement,setting,value
CCCCCCCCCCCCCCCC(=O)NCCCC[C@H](NC(=O)[C@H](C)NC(=O)[C@H](C)NC(=O)[C@H](C)NC(=O)[C@H](CC(C)C)NC(=O)[C@H](CC(C)C)NC(=O)[C@H](CC(C)C)NC(=O)[C@H](CCCCN)NC(=O)[C@H](CC(N)=O)NC(=O)[C@@H](NC(=O)[C@H](C)NC(=O)[C@H](CO)NC(=O)[C@H](CCC(N)=O)NC(=O)[C@H](Cc1ccc(O)cc1)NC(=O)[C@@H](NC(=O)CNC(=O)[C@H](CC(C)C)NC(=O)[C@H](CCCNC(=N)N)NC(=O)[C@H](CCCCN)NC(=O)[C@H](C)NC(=O)[C@@H](NC(=O)[C@H](CCCCN)NC(=O)[C@@H](N)CCCNC(=N)N)[C@@H](C)O)C(C)C)[C@@H](C)CC)C(=O)O [DNA-binding PA] (H-RKTAKRLGVYQSAINKLLLAAAK(Palmitoyl)-OH),gelation concentration,Gelation,3.5 wt %
same,size of nanostructures when complexed with DNA,[1],smaller
same,transfection efficiency (in words),"[2]; P19 cells in suspension aggregates, comparison of PA system, peptide and Lipofectamine",greatly enhanced
same,increase in the mRNA transcript (qPCR),[2]; [3],Up to 10 fold
same,increase in the protein expression of GFP (Western blot),[2]; [3],threefold
same,increase in protein expressed (Western Blot),"[2]; largest aggregate size, after two days, compared to lipofectamine",three-fold
same,"increase in GFP mRNA transcripts (qPCR, ΔΔCT method)","[2]; largest aggregates (1.5 mm average diameter), after two days, compared to lipofectamine",~10 fold
same,"increase in GFP mRNA transcripts (qPCR, ΔΔCT method)","[2]; smaller aggregates (0.4 mm average diameter), after two days, compared to lipofectamine",seven-fold
same,protection of DNA from degradation by DNase,DNA,did protect the DNA from degradation
